Measured values reported in patent US7439393B2, “Phenethanolamine derivatives for treatment of respiratory diseases” (Glaxo Group Limited, priority 2001, dated 2008).
Some entries share one result that the patent states for a list of compounds. For some assays here: At least one compound was matched to its structure with a doubt left.

By UniProt entry, the sequences of proteins in these tests, tags left out.
UniProt P07550, whole entry: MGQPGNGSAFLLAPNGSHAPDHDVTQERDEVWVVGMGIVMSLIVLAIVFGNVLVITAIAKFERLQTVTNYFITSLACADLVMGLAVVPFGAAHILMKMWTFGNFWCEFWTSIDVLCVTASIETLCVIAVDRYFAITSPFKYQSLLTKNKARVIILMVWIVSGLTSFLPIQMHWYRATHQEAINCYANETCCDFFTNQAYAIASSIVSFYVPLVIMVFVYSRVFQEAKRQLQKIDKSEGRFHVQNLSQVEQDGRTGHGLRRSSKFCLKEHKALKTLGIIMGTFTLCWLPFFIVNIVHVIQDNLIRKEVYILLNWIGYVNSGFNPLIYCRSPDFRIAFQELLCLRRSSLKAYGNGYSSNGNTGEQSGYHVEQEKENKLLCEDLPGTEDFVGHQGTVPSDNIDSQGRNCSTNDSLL

Tests used:
PDE4 = PDE4 IC50 ratio: high affinity rolipram binding form over low affinity catalytic form; type: biochemical; conditions: 1 nM [3H]R-rolipram binding vs catalytic activity with 1 μM [3H]-cAMP
[1] = target: T1, human beta 2 adrenoreceptor (Homo sapiens, UniProt P07550); experiment: beta 2 agonist potency in frog melanophores (pigment dispersal, light transmittance); type: cell-based; conditions: frog melanophores transfected with the human beta 2 adrenoreceptor; melatonin-aggregated pigment; agonist activity
T1 construct: expressed in transfected cells; host or cells: frog melanophores

SMILES	IC50 ratio (IC50 for PDE4 form binding rolipram with high affinity divided by IC50 for form binding rolipram with low affinity) (PDE4)	IC50 [1] [nM]
COC(=O)C1CC(C#N)(c2ccc(OC(F)F)c(OCC3CC3)c2)CCC1=O (centres unmarked) [2-carbomethoxy-4-cyano-4-(3-cyclopropylmethoxy-4-difluoromethoxyphenyl)cyclohexan-1-one]	≥ 0.1	–
O=C(Nc1cccc(COCCOCCCCCCNC[C@H](O)c2ccc(O)c(CO)c2)c1)Nc1cccc(NC(=O)c2ccccc2)c1 [Example 58, N-(3-{[({3-[(2-{[6-({(2R)-2-Hydroxy-2-[4-hydroxy-3-(hydroxymethyl)phenyl]ethyl}-amino)hexyl]oxy}ethoxy)methyl]phenyl}amino)carbonyl]amino}phenyl)benzamide]	–	< 1000
O=C(Nc1cccc(COCCOCCCCCCNC[C@H](O)c2ccc(O)c(CO)c2)c1)Nc1cccc(NC(=O)c2cccs2)c1 [Example 59, N-(3-{[({3-[(2-{[6-({(2R)-2-Hydroxy-2-[4-hydroxy-3-(hydroxymethyl)phenyl]ethyl}-amino)hexyl]oxy}ethoxy)methyl]phenyl}amino)carbonyl]amino}phenyl)thiophene-2-carboxamide]	–	< 1000
O=C(Nc1cccc(COCCOCCCCCCNC[C@H](O)c2ccc(O)c(CO)c2)c1)Nc1cccc(-c2ccccc2)c1 [Example 60, N-(1,1′-Biphenyl-3-yl)-N′-{3-[(2-{[6-({(2R)-2-hydroxy-2-[4-hydroxy-3-(hydroxymethyl)phenyl]ethyl}amino)hexyl]oxy}ethoxy)methyl]phenyl}urea]	–	< 1000
Nc1cccc(NC(=O)Nc2cccc(COCCOCCCCCCNC[C@H](O)c3ccc(O)c(CO)c3)c2)c1 [Example 61, N-(3-Aminophenyl)-N′-{3-[(2-{[6-({(2R)-2-hydroxy-2-[4-hydroxy-3-(hydroxy-methyl)phenyl]ethyl}amino)hexyl]oxy}ethoxy)methyl]phenyl}urea acetate]	–	< 1000
CNS(=O)(=O)c1cccc(COCCOCCCCCCNC[C@H](O)c2ccc(O)c(CO)c2)c1 [Example 62, 3-[(2-{[6-({(2R)-2-Hydroxy-2-[4-hydroxy-3-(hydroxymethyl)phenyl]ethyl}amino)-hexyl]oxy}ethoxy)methyl]-N-methylbenzenesulfonamide compound with (2E)-but-2-enedioic acid (2:1)]	–	< 1000
O=C(Nc1ccccc1)Nc1cccc(COCCOCCCCCNC[C@H](O)c2ccc(O)c(CO)c2)c1 [Example 64, N-{3-[(2-{[5-({(2R)-2-Hydroxy-2-[4-hydroxy-3-(hydroxymethyl)phenyl]ethyl}amino)pentyl]oxy}ethoxy)methyl]phenyl}-N′-phenylurea acetate]	–	< 1000
O=C(Nc1ccccc1)Nc1cccc(COCCCOCCCCCNC[C@H](O)c2ccc(O)c(CO)c2)c1 [Example 65, N-{3-[(3-{[5-({(2R)-2-Hydroxy-2-[4-hydroxy-3-(hydroxymethyl)phenyl]ethyl}amino)pentyl]oxy}propoxy)methyl]phenyl}N′-phenylurea acetate]	–	< 1000
O=C(Nc1ccccc1)Nc1cccc(COCCOCCCCCCCNC[C@H](O)c2ccc(O)c(CO)c2)c1 [Example 66, N-{3-[(2-{[7-({(2R)-2-Hydroxy-2-[4-hydroxy-3-(hydroxymethyl)phenyl]ethyl}amino)heptyl]oxy}ethoxy)methyl]phenyl}-N′-phenylurea acetate]	–	< 1000
O=C(Nc1cccc(COCCOCCCCCNC[C@H](O)c2ccc(O)c(CO)c2)c1)Nc1cccc(NC(=O)c2cccnc2)c1 [Example 67, N-(3-{[({3-[(2-{[5-({(2R)-2-Hydroxy-2-[4-hydroxy-3-(hydroxymethyl)phenyl]ethyl}amino)pentyl]oxy}ethoxy)methyl]phenyl}amino)carbonyl]amino}phenyl)nicotinamide acetate]	–	< 1000
O=C(Nc1cccc(COCCCOCCCCCNC[C@H](O)c2ccc(O)c(CO)c2)c1)Nc1cccc(NC(=O)c2cccnc2)c1 [Example 68, N-(3-{[({3-[(3-{[5-({(2R)-2-Hydroxy-2-[4-hydroxy-3-(hydroxymethyl)phenyl]ethyl}amino)pentyl]oxy}propoxy)methyl]phenyl}amino)carbonyl]amino}phenyl)nicotinamide acetate]	–	< 1000
CS(=O)(=O)Nc1cccc(COCCOCCCCCNC[C@H](O)c2ccc(O)c(CO)c2)c1 [Example 70, N-{3-[(2-{[5-({(2R)-2-Hydroxy-2-[4-hydroxy-3-(hydroxymethyl)phenyl]ethyl}amino)pentyl]oxy}ethoxy)methyl]phenyl}methanesulfonamide acetate]	–	< 1000
CS(=O)(=O)Nc1cccc(COCCCOCCCCCNC[C@H](O)c2ccc(O)c(CO)c2)c1 [Example 71, N-{3-[(3-{[5-({(2R)-2-Hydroxy-2-[4-hydroxy-3-(hydroxymethyl)phenyl]ethyl}amino)pentyl]oxy}propoxy)methyl]phenyl}methanesulfonamide acetate]	–	< 1000
CS(=O)(=O)Nc1cccc(COCCOCCCCCCCNC[C@H](O)c2ccc(O)c(CO)c2)c1 [Example 72, N-{3-[(2-{[7-({(2R)-2-Hydroxy-2-[4-hydroxy-3-(hydroxymethyl)phenyl]ethyl}amino)heptyl]oxy}ethoxy)methyl]phenyl}methanesulfonamide acetate]	–	< 1000
O=S(=O)(Nc1cccc(COCCOCCCCCCNC[C@H](O)c2ccc(O)c(CO)c2)c1)c1ccccc1 [Example 73, N-{3-[(2-{[6-({(2R)-2-Hydroxy-2-[4-hydroxy-3-(hydroxymethyl)phenyl]ethyl}amino)hexyl]oxy}ethoxy)methyl]phenyl}benzenesulfonamide acetate]	–	< 1000
CN(C)c1cccc(COCCOCCCCCCNC[C@H](O)c2ccc(O)c(CO)c2)c1 [Example 74, 4-((1R)-2-{[6-(2-{[3-(Dimethylamino)benzyl]oxy}ethoxy)hexyl]amino}-1-hydroxyethyl)-2-(hydroxymethyl)phenol]	–	< 1000
C[N+](C)(C)c1cccc(COCCOCCCCCCNC[C@H](O)c2ccc(O)c(CO)c2)c1 [Example 75, 3-[(2-{[6-({(2R)-2-Hydroxy-2-[4-hydroxy-3-(hydroxymethyl)phenyl]ethyl}amino)hexyl]oxy}ethoxy)methyl]-N,N,N-trimethylbenzenaminium acetate compound with acetic acid (1:1)]	–	< 1000
O=C(Nc1ccccc1)Nc1ccc(COCCOCCCCCCNC[C@H](O)c2ccc(O)c(CO)c2)cc1 [Example 76, N-{4-[(2-{[6-({(2R)-2-Hydroxy-2-[4-hydroxy-3-(hydroxymethyl)phenyl]ethyl}amino)hexyl]oxy}ethoxy)methyl]phenyl}-N′-phenylurea acetate]	–	< 1000
COc1ccc([C@]2(C#N)CC[C@@H](C(=O)O)CC2)cc1OC1CCCC1 [cis 4-cyano-4-(3-cyclopentyloxy-4-methoxyphenyl)cyclohexan-1-carboxylic acid]	≥ 0.1	–
N#CC1(c2ccc(OC(F)F)c(OCC3CC3)c2)CCC(O)CC1 (stereo not drawn) [cis-[4-cyano-4-(3-cyclopropylmethoxy-4-difluoromethoxyphenyl)cyclohexan-1-ol]]	≥ 0.1	–
